These are yes or no findings as the source states them, for the method shown. In cells and extracts the contact can be indirect. Some entries that bind do so weakly or less than the wild type.

By UniProt entry, the sequences of proteins in these tests, tags left out. Where a name states a change or a piece, a line headed by the entry shows the natural chain unless it says otherwise.
UniProt P0DMV8: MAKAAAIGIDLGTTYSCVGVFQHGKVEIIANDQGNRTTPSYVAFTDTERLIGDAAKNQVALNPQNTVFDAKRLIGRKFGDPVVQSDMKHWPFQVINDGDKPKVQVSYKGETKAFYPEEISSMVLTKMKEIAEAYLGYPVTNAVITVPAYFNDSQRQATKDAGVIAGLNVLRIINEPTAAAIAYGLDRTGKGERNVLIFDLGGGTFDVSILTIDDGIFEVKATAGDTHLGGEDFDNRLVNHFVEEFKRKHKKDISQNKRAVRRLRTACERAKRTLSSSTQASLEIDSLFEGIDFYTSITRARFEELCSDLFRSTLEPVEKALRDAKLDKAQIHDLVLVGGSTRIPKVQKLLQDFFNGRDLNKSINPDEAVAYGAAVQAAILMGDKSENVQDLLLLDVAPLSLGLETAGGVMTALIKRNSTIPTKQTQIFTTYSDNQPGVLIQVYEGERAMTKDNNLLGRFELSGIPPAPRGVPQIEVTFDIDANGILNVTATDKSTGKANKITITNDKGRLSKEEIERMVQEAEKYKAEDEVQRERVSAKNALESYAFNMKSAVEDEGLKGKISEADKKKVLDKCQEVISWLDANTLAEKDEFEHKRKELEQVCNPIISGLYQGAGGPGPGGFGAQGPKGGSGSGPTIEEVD
UniProt O95817: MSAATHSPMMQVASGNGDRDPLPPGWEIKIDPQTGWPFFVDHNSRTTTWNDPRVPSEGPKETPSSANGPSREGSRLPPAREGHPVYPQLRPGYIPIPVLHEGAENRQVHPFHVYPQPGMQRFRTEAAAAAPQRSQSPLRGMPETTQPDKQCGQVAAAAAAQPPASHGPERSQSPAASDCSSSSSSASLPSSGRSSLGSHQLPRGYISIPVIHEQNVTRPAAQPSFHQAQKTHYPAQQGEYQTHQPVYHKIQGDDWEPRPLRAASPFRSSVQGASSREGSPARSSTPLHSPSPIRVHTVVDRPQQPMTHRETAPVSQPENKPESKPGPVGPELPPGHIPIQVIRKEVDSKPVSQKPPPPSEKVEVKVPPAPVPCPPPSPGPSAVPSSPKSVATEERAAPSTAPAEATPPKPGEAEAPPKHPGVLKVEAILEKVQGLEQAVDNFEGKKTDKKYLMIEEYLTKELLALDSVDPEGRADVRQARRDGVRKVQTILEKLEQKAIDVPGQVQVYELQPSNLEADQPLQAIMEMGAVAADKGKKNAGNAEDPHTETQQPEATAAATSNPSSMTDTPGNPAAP

The target in assay [1] is heat shock protein 70 (Hsp70) (human (endogenous in MCF-7 and T47D lines)) (UniProt P0DMV8). Briefly: co-IP; Hsp70 antibody, protein G sepharose, endogenous proteins in lysates (IP buffer: 10 mM HEPES pH 7.4, 50 mM NaCl, 5 mM MgCl2, 1 mM EGTA, 5% glycerol, 0.5% Triton X-100; overnight 4 °C) of MCF-7, MCF-7/R1, MCF-7/R2, MCF-7/TAM-R, T47D, T47D/TAM-R cells and MCF-7/TAM-R xenograft tumors; cells or mice untreated or treated with S1g-2, MKT-077 or VER-155008; blots for Bim, Bag3, ERα36, ERα66.

The target of assay [2] is Bag3 (human (endogenous in MCF-7 and T47D lines)) (UniProt O95817). The assay can be described thus: co-IP; five successive precipitations with Bim or Bag3 antibody and protein G sepharose from cell lysates, pooled, blot for Hsp70; percent of the Hsp70 of the lysate that was pulled down; MCF-7, MCF-7/R1, MCF-7/R2, MCF-7/TAM-R, T47D, T47D/TAM-R.

In the case of Bag3 (from UniProt O95817 1-575), in assay [1], the binding entry is given as “binds”.
In the case of “heat shock protein 70 (Hsp70) (from UniProt P0DMV8 1-641)”, in assay [2], the binding entry is “binds”.

(Values after paper PMC10895875.)
